Biological target: Cytochrome P450 3A4 (Homo sapiens, UniProt P08684)
Assay: Inhibition of cytochrome P450 3A4 enzyme

The chains behind the UniProt entries cited, without tags or fusion partners.
UniProt P08684, whole entry: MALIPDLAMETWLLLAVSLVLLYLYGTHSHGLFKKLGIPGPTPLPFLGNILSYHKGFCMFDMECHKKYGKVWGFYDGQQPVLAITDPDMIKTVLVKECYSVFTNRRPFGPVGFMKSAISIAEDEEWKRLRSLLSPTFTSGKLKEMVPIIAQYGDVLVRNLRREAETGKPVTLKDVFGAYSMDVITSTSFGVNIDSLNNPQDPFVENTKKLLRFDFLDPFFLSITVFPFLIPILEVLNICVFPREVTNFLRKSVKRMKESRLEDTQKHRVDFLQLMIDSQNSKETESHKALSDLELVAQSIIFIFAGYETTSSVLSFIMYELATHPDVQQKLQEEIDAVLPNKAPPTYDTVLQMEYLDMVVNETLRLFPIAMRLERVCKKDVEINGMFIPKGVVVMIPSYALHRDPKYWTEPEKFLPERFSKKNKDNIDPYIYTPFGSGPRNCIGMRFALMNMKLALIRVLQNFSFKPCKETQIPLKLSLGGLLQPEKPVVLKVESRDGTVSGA

## Cc1cc(C)cc(-c2[nH]c3ccc(C(C)(C)C(=O)N4CC5CCC4CC5)cc3c2[C@H](C)CNCCc2ccc3nn[nH]c3c2)c1
  IC50: 7.5 µM

Reference: ChEMBL document CHEMBL1135234, “2-Arylindoles as gonadotropin releasing hormone (GnRH) antagonists: optimization of the tryptamine side chain” (Bioorg Med Chem Lett, 2002)
